Taken from: PubChem BioAssay AID1053208 (Peter MacCallum Cancer Centre, 2014)
Here is a random part of about 17,000 deposited reagents. 788 of them (4.7%) were called active. 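Calls rest on z-score classes alone; an extra cut-off of viability at most 70% of control was not applied to them.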 No sequences are given here.

- Test: 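Genes whose silencing cuts survival of bone tumour cells only with doxorubicin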 (primary screen)
- System: mouse osteosarcoma cells, early-passage culture from an engineered mouse model of fibroblastic bone tumour
- Reagents: siRNA pool against mouse genes, 40 nM
- Duration: about 120 h (48 h before drug, then 72 h with drug)
- Challenge: doxorubicin 100 nM for 72 h, roughly 30-40% inhibitory dose
- Detection: 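Viability read as ATP luminescence after 72 h of 100 nM doxorubicin or none, duplicate wells averaged, scaled to non-targeting siRNA, then expressed as robust z-scores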
- Reading the numbers: viability z-score with doxorubicin and doxorubicin viability vs non-targeting: higher = more viable cells under doxorubicin; viability z-score without drug: higher = more viable cells with knock-down alone; z-score of drug to no-drug ratio: higher = less drug sensitisation by knock-down
- Active means: 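Called active if knock-down leaves viability unchanged without drug (z within -2 to 2) but lowers it with doxorubicin (z at or under -2)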

no.	gene	combined z-score class	viability z-score with doxorubicin	viability z-score without drug	z-score of drug to no-drug ratio	doxorubicin viability vs non-targeting	Call
1	Vta1 (vesicle (multivesicular body) trafficking 1)	no change with or without drug	1.8	0.51	1.57	1.1	inactive
2	Clic4 (chloride intracellular channel 4)	no change with or without drug	0.9	-0.17	1.24	1.02	inactive
3	Efna5 (ephrin A5)	no change with or without drug	-1.12	0.17	-1.12	0.84	inactive
4	Atp13a1 (ATPase type 13A1)	low cell count with doxorubicin only	-2.25	-1.18	-1.57	0.74	active
5	Defb37 (defensin beta 37)	no change with or without drug	1.35	0.51	1.12	1.06	inactive
6	Sec63 (SEC63 homolog, protein translocation regulator)	no change with or without drug	-0.45	-1.18	0.45	0.9	inactive
7	Cacybp (calcyclin binding protein)	no change with or without drug	0.9	1.35	0.11	1.02	inactive
8	Gipr (gastric inhibitory polypeptide receptor)	no change with or without drug	0.22	0	0.34	0.96	inactive
9	Mapk13 (mitogen-activated protein kinase 13)	no change with or without drug	-0.11	-0.51	0.34	0.93	inactive
10	Mlxipl (MLX interacting protein-like)	no change with or without drug	0.45	0	0.56	0.98	inactive
11	Msmo1 (methylsterol monoxygenase 1)	no change with or without drug	0.22	1.52	-0.67	0.96	inactive
12	Thrb (thyroid hormone receptor beta)	no change with or without drug	-1.46	-0.51	-1.12	0.81	inactive
13	Cxcl14 (C-X-C motif chemokine ligand 14)	no change with or without drug	0.45	0.51	0.22	0.98	inactive
14	Nlrp4b (NLR family, pyrin domain containing 4B)	no change with or without drug	-1.12	-1.18	-0.34	0.84	inactive
15	Tstd2	no change with or without drug	0.45	-1.85	2.14	0.98	inactive
16	Ggnbp2 (gametogenetin binding protein 2)	no change with or without drug	-0.67	-0.84	0	0.88	inactive
17	Dagla (diacylglycerol lipase, alpha)	no change with or without drug	0.67	1.85	-0.45	1	inactive
18	Hr (Hr, lysine demethylase and nuclear receptor corepressor)	no change with or without drug	-0.67	-1.18	0.22	0.88	inactive
19	Xpa (xeroderma pigmentosum, complementation group A)	no change with or without drug	0.22	0.17	0.22	0.96	inactive
20	Gm9734 (predicted gene 9734)	no change with or without drug	0.67	0.17	0.67	1	inactive
21	Snw1 (SNW domain containing 1)	no change with or without drug	-0.67	1.35	-1.46	0.88	inactive
22	Smr2 (submaxillary gland androgen regulated protein 2)	low cell count with doxorubicin only	-2.36	0	-2.36	0.73	active
23	Garin5b (golgi associated RAB2 interactor family member 5B)	no change with or without drug	-0.22	-1.85	1.35	0.92	inactive
24	Arfgap1 (ARF GTPase activating protein 1)	low cell count with and without drug	-3.26	-2.7	-1.8	0.65	inactive
25	Vmn1r16 (vomeronasal 1 receptor 16)	no change with or without drug	-1.01	-0.17	-0.9	0.85	inactive
26	Dazap2 (DAZ associated protein 2)	no change with or without drug	0.45	0.34	0.34	0.98	inactive
27	Hspa13 (heat shock protein family A (Hsp70) member 13)	no change with or without drug	1.01	0.67	0.67	1.03	inactive
28	Tubb3 (tubulin, beta 3 class III)	no change with or without drug	0.67	0	0.79	1	inactive
29	Gpx2 (glutathione peroxidase 2)	low cell count without drug only	-0.34	-2.53	1.8	0.91	inactive
30	Hsp90aa1 (heat shock protein 90, alpha (cytosolic), class A member 1)	no change with or without drug	0.79	-0.51	1.35	1.01	inactive
31	Zfp68 (zinc finger protein 68)	no change with or without drug	1.35	0.34	1.24	1.06	inactive
32	Rin2 (Ras and Rab interactor 2)	no change with or without drug	1.8	0.84	1.35	1.1	inactive
33	Sgsm3 (small G protein signaling modulator 3)	no change with or without drug	0.45	-0.17	0.67	0.98	inactive
34	Itgb2l (integrin beta 2-like)	no change with or without drug	-1.35	-0.84	-0.79	0.82	inactive
35	Zfp398 (zinc finger protein 398)	no change with or without drug	1.69	1.85	0.56	1.09	inactive
36	Or8k17 (olfactory receptor family 8 subfamily K member 17)	no change with or without drug	-1.01	-1.85	0.34	0.85	inactive
37	L3mbtl3 (L3MBTL3 histone methyl-lysine binding protein)	no change with or without drug	-0.34	-0.17	-0.11	0.91	inactive
38	Kdm8 (lysine (K)-specific demethylase 8)	no change with or without drug	-0.67	-1.52	0.45	0.88	inactive
39	Sec14l2 (SEC14-like lipid binding 2)	no change with or without drug	-1.24	-0.51	-0.9	0.83	inactive
40	Tm9sf2 (transmembrane 9 superfamily member 2)	no change with or without drug	0.67	0.34	0.56	1	inactive
41	Prkra	no change with or without drug	-1.46	-0.17	-1.35	0.81	inactive
42	Rhox6 (reproductive homeobox 6)	no change with or without drug	0.79	1.52	-0.11	1.01	inactive
43	Vmn1r27 (vomeronasal 1 receptor 27)	no change with or without drug	0.56	-0.67	1.24	0.99	inactive
44	9230101D24	no change with or without drug	-0.67	0	-0.56	0.88	inactive
45	Srsf7 (serine and arginine-rich splicing factor 7)	no change with or without drug	0.67	-1.52	2.02	1	inactive
46	Slc22a4	no change with or without drug	-0.67	0.17	-0.67	0.88	inactive
47	Tmem35a (transmembrane protein 35A)	no change with or without drug	-0.22	-0.17	0	0.92	inactive
48	BC016579 (cDNA sequence, BC016579)	no change with or without drug	0.34	0.51	0.11	0.97	inactive
49	Klk1b27 (kallikrein 1-related peptidase b27)	no change with or without drug	0.9	1.18	0.22	1.02	inactive
50	Lbh (limb-bud and heart)	no change with or without drug	-0.22	1.18	-0.9	0.92	inactive

Look-ups from above.
Under “viability z-score with doxorubicin”, Nlrp4b (NLR family, pyrin domain containing 4B) shows -1.12
Entry of Sec14l2 (SEC14-like lipid binding 2) under “viability z-score without drug”: -0.51
Entry of BC016579 (cDNA sequence, BC016579) under “viability z-score without drug”: 0.51
Result of Klk1b27 (kallikrein 1-related peptidase b27) in “viability z-score with doxorubicin”: 0.9
For “viability z-score with doxorubicin”, Lbh (limb-bud and heart) is entered as -0.22
Tmem35a (transmembrane protein 35A), viability z-score without drug: -0.17
